Laboratory results taken from PubChem BioAssay AID504444 (National Center for Advancing Translational Sciences (NCATS), 2011).
Among all 360,000 compounds or so, about 7,500 (2.1%) were called active. Inconclusive means that the source gave no clear call. Such entries were picked first, then a sample of the others. Calls follow the shape of the dose curve; as a rule, active = well fitted inhibition curve with a large enough effect; inconclusive = small, poorly fitted or top-dose-only effect, or effect the other way; inactive = flat fitted curve, though single readings scatter. Where the call is inconclusive, the potency comes from a doubtful curve fit.

Test: Nrf2 qHTS screen for inhibitors; also: nearly all actives have a fitted effect of over 60% in size
Conditions: A549 ARE-Fluc reporter, luciferase luminescence, 18-24 h; series mostly up to 46 µM
In short: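 A549 ARE_Fluc cells (5000/well, 5% FBS OPTI-MEM) pre-incubated 2 h, then treated with compounds 18-24 h at 37C/5% CO2 in concentration-response. CellTiter-Fluor viability read first; BugLite luciferase luminescence after 15 min at room temperature gives Nrf2 activity.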
Potency is read from the fitted curve at half-maximal effect.

Structure (SMILES) | Potency
Cc1cc(N/N=C/c2ccc(N(C)C)cc2)nc(NCc2ccccc2)n1 | inconclusive: 29.1 µM [falling, single point]
Cn1cccc1-c1nc2ccc(NC(=O)c3ccccc3)cc2[nH]1 | inconclusive: 7.31 µM [falling, partial curve, poor fit]
CC(=O)c1c(C(C)=O)c(C)n(-c2nc(-c3ccc(C)c(C)c3)c(C)s2)c1C | active: 13 µM
O=C(NC1CCCC1)c1cc(-c2ccc(Cl)c(Cl)c2)on1 | inconclusive: 3.66 µM [activator, partial curve, poor fit]
CNC(=O)c1cc(S(=O)(=O)N2CC(C)OC(C)C2)ccc1N1CCOCC1 (stereo not given) | inactive
Cc1c(N=N/C(C(=O)Nc2ccccc2)=C(/O)c2ccccc2)c(=O)n(-c2ccccc2)n1C | inconclusive: 5.17 µM [falling, full curve, poor fit]
S=C(NCCc1ccccc1)NN=C1CCCCCC1 | inconclusive: 13 µM [activator, partial curve, poor fit]
CCN(c1cc(C)cc(C)c1)S(=O)(=O)c1nnc(NC(=O)C2CCCCC2)s1 | inconclusive: 20.6 µM [falling, single point]
O=C(CCc1ccccc1)c1nnc(-c2ccccc2)o1 | inconclusive: 29.1 µM [activator, single point]
CC(=O)N(C(C)=O)N1C(=O)/C(=C/c2ccc(Cl)cc2)SC1=S | inconclusive: 18.4 µM [falling, partial curve, poor fit]
c1ccc(-c2nc(-c3ccco3)n3ccccc23)cc1 | inactive
Cc1cc(C)cc(NC(=O)CCC(=O)N2Cc3ccccc3Oc3ncccc32)c1 | inconclusive: 32.6 µM [activator, single point]
Clc1ccc2nc(CSc3ccccc3)cn2c1 | inconclusive: 8.2 µM [activator, partial curve]
CN(C)c1ccc(C(C(=O)NC2CCCCC2)N(Cc2ccco2)C(=O)c2snc(C(N)=O)c2N)cc1 (stereo not given) | active: 14.6 µM
FC(F)Oc1cccc(NC(=S)N2CCN(c3ccccn3)CC2)c1 | inconclusive: 14.6 µM [falling, partial curve]
O=C(CSc1nc2ccccc2c(=O)[nH]1)c1ccc(O)c(O)c1 | inactive
O=S(=O)(c1ccc2ccccc2c1)N(CC(O)COCc1ccco1)c1ccccc1 (stereo not given) | inconclusive: 16.4 µM [falling, single point]
c1ccc2nc(-c3nc4ccccc4[nH]3)ccc2c1 | inconclusive: 6.51 µM [activator, partial curve, poor fit]
N#CCCN(Cc1cccnc1)S(=O)(=O)c1ccc(S(=O)(=O)NC2CCCCC2)cc1 | inconclusive: 29.1 µM [falling, single point]
COc1ccc(CC(=O)Nc2cccc(-c3csc(C)n3)c2)cc1 | inconclusive: 20.6 µM [falling, partial curve, poor fit]
Cc1ccc2oc(/N=C(\N)NC(=O)C3CC3)nc2c1 | inconclusive: 0.731 µM [activator, full curve]
COc1ccccc1NC(=O)C1=C(C)Nc2nc3ccccc3n2C1c1cccs1 (stereo not given) | inconclusive: 18.4 µM [falling, partial curve]

Structure (SMILES) | Potency
COc1cccc(N=Nc2ccc3ccccc3c2O)c1 | inconclusive: 6.51 µM [activator, full curve]
CCc1ccc(CCC(=O)Nc2sc3c(c2C#N)CCCC3)o1 | inconclusive: 8.2 µM [falling, partial curve, poor fit]
OCCCc1nc2ccccc2n1CCCCOc1ccccc1 | inconclusive: 0.58 µM [falling, partial curve, poor fit]
C=CCn1c(C)c(/C=C/c2cc[n+](C)cc2)c2ccccc21 | inconclusive: 20.6 µM [falling, partial curve, poor fit]
Cc1onc(C(=O)Nc2sc3c(c2C#N)CCCC3)c1[N+](=O)[O-] | inconclusive: 20.6 µM [activator, single point]
Cc1ccc(S(=O)(=O)N2CCN(c3nc(-c4ccco4)nc4ccccc34)CC2)cc1 | inactive
CCn1c(=O)n(CC)c2cc(N3CCCCC3)c(NC(=O)Nc3cc(C)cc(C)c3)cc21 | inconclusive: 16.4 µM [falling, partial curve, poor fit]
Cc1cccc(NC(=O)c2cccc(S(=O)(=O)N(C)c3ccccc3)c2)n1 | active: 14.6 µM
CCn1cc(C(=O)OCC(=O)c2ccc(Cl)cc2)c(=O)c2ccc(C)nc21 | inconclusive: 32.6 µM [falling, partial curve, poor fit]
c1ccc(CNc2cncnc2)cc1 | inconclusive: 0.0731 µM [falling, full curve, poor fit]
Cc1ccc(C)c(N2CCN(c3cnn(-c4nc5ccccc5s4)c(=O)c3Cl)CC2)c1 | inconclusive: 1.64 µM [activator, full curve]
COc1ccc(C(=O)C2CCCN(C(=O)c3ccc(C(C)=O)s3)C2)c(C)c1 (stereo not given) | inconclusive: 29.1 µM [falling, single point]
Cc1ccc(/C=C2\SC(=S)N(CCC(=O)NCCCN3CCOCC3)C2=O)cc1 | inconclusive: 23.1 µM [activator, single point]
Cc1cc(C)nc(NC(=O)c2ccc(COc3ccccc3Cl)cc2)c1 | inconclusive: 32.6 µM [falling, single point]
Cc1cc(C)c(CSc2nnc(C)n3c2cc2occc23)c(C)c1 | inactive
Cc1ccccc1/C(N)=N/OC(=O)/C=C/c1ccccc1 | inconclusive: 1.3 µM [activator, full curve, poor fit]
CC(C)C(=O)Nc1ccc2c(c1)C(=O)N(CCC(=O)O)C2=O | inactive
CCN(Cc1ccccc1)C(=O)c1nc(-c2cccc(F)c2)n2c1CCCCC2 | inconclusive: 29.1 µM [falling, single point]
O=C(NC(=S)Nc1cc(-c2nc3ccccc3[nH]2)ccc1Cl)c1ccc2c(c1)OCO2 | inconclusive: 6.51 µM [activator, single point]
Cc1ccn2c(Nc3ccccc3C)c(-c3ccccn3)nc2c1 | inconclusive: 29.1 µM [falling, single point]
Nc1ccc(NC(=O)NC2CCCCC2)cc1[N+](=O)[O-] | inconclusive: 5.8 µM [activator, full curve]
C[C@H](NC(=O)c1nc[nH]c1C(=O)N[C@H](C)c1ccccc1)C(=O)OC(C)(C)C | inconclusive: 23.1 µM [falling, partial curve]

Pulled by structure from the entries so far (3):
Structure (SMILES) | Potency
Cc1cc(C)nc(NC(=O)c2ccc(COc3ccccc3Cl)cc2)c1 | inconclusive: 32.6 µM [falling, single point]
Cc1cccc(NC(=O)c2cccc(S(=O)(=O)N(C)c3ccccc3)c2)n1 | active: 14.6 µM
Nc1ccc(NC(=O)NC2CCCCC2)cc1[N+](=O)[O-] | inconclusive: 5.8 µM [activator, full curve]

Further records follow.

Structure (SMILES) | Potency
COCCCNC(=O)C1CCCN(C(=O)c2cnn(-c3ccc(F)cc3)c2-n2cccc2)C1 (stereo not given) | inconclusive: 29.1 µM [activator, single point]
O=C1NC[C@@H](c2ccccc2)OC(=O)[C@H](Cc2ccc(F)cc2)C/C=C\C[C@@H]1CC(=O)N(CCO)Cc1ccccc1 | active: 25.9 µM
Cc1ccc(SCc2nc(-c3ccc(C(=O)NCc4ccc(Cl)cc4)cc3)oc2C)cc1 | inactive
N#Cc1c(-c2ccccc2)cc(-c2ccccc2)nc1SCC(=O)O | inconclusive: 29.1 µM [falling, single point]
CCSc1nnc(NC(=O)c2csc(C)c2)s1 | inactive
COc1cc(NC(=O)c2noc3c2CSc2ccccc2-3)cc(OC)c1OC | inconclusive: 36.6 µM [activator, partial curve, poor fit]
COc1ccc(-n2c(C)cc(C(=O)CCl)c2C)cc1 | inconclusive: 11.6 µM [falling, partial curve]
CCCCOC(=O)Nc1ccc(N(C)C)cc1 | inconclusive: 2.91 µM [activator, single point]
O=C(c1n[nH]c(=O)c2ccccc12)N1CCN(C2c3ccccc3-c3ccccc32)CC1 | inconclusive: 25.9 µM [falling, single point]
C/C(=N\Nc1ccccc1Cl)c1ccc(-n2ccnc2)cc1 | inconclusive: 0.92 µM [falling, partial curve, poor fit]
Cc1ccc2nc(/C(C#N)=C\c3ccc(Oc4ccc([N+](=O)[O-])cn4)cc3)[nH]c2c1 | inactive
O=C(Nc1nccs1)C(Br)C(Br)c1ccccc1 (stereo not given) | inconclusive: 8.2 µM [activator, partial curve]
Cc1ccc(NS(=O)(=O)c2ccc(CCC(=O)NCc3cccnc3)cc2)cc1 | inconclusive: 11.6 µM [falling, partial curve, poor fit]
COCCc1nn2c(=O)cc(COC(=O)c3ccc(OC)c(OC)c3)nc2s1 | inconclusive: 4.61 µM [falling, single point]
Cc1cc(N2CCCCC2)nc2ccc(NC(=O)c3ccc(Br)o3)cc12 | active: 20.6 µM
COc1ccc(NC(=S)NCCc2c[nH]c3ccccc23)cc1 | inactive
C=CCn1c(CSc2nc3ccccc3s2)nnc1SCC(=O)NCc1ccccc1 | inconclusive: 29.1 µM [activator, single point]
COc1ccc(/C=C/C(=O)Nc2cc(C(F)(F)F)ccc2Cl)cc1OC | inconclusive: 8.2 µM [falling, partial curve]
CCOc1cccc(-c2cc(C(=O)N/N=C/c3ccc(OC)c(CN4CCOCC4)c3)c3ccccc3n2)c1 | inactive
CC1CC1C(=O)OCC(=O)NC(=O)NC12CC3CC(CC(C3)C1)C2 (stereo not given) | inconclusive: 13 µM [activator, partial curve, poor fit]
Cc1ccc(S(=O)(=O)N2CCN(CC(=O)N/N=C/c3ccc(Br)s3)CC2)cc1 | inconclusive: 16.4 µM [falling, partial curve, poor fit]
